± gives the uncertainty stated by the source. Many of these values have a large error.
Assay: self-splicing fitness, log relative to wild type (ln ratio); higher = more splicing; Tetrahymena group I intron in knt gene, E. coli kanamycin selection, DiMSum; sequences stand for … in CUCUCU…GGAGGGAAAAGUUAUCAGGCAUGCACCUGGUAGCUAGUCUUUAAACCAAUAGAUUGCAUCGGUUUAAAAGGCAAGACCGUCAAAUUGCGGGAAAGGGGUCAACAGCCGUUCAGUACCAAGUCUCAGGGGAAACUUUGAGAUGGCCUUGCAAAGGGUAUGGUAAUAAGCUGACGGACAUGGUCCUAACCACGCAGCCAAGUCCUAAGUCAACAGAUCUUCUGUUGAUAUGGAUGCAGUUCACAGACUAAAUGUCGGUCGGGGAAGAUGUAUUCUUCUCAUAAGAUAUAGUCGGACCUCUCCUUAAUGGGAGCUAGCGGAUGAAGUGAUGCAACACUGGAGCCGCUGGGAACUAAUUUGUAUGCGAAAGUAUAUUGAUUAGUUUUGGAGUACUCGUGGUCG
Summary of the method: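 Colonies from six replicate transformations of E. coli BL21(DE3) were pooled and amplicon-sequenced on an Illumina HiSeq 2500. The library placed an intron with all eight P1ex-region nucleotides randomised inside the knt kanamycin-resistance gene on pET-22b(+), and cells grew overnight at 37°C or 30°C on LB agar with or without 25 μg/mL kanamycin (plus 100 μg/mL carbenicillin, 50 μM IPTG, 0.2% rhamnose). Fitness is the DiMSum error-weighted combination of wild-type-normalised replicate fold changes, kanamycin versus none.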

Sequence	self-splicing fitness (ln) (30 °C)	self-splicing fitness (ln) (37 °C)
CGUGAGCAAUAUUACGUUCA	-3.04 ± 0.54	-1.39 ± 0.9
GCAGAGCAAUAUUACGAAUG		-2.67 ± 0.75
AGGAAGCAAUAUUACGCAAC	0.271 ± 1.2	-2.08 ± 1.1
AGUUAGCAAUAUUACGAGCG	-0.12 ± 0.1	0.237 ± 0.11
AUUAAGCAAUAUUACGGCUG	-0.405 ± 0.083	-0.233 ± 0.1
GCAUAGCAAUAUUACGCCGC	-5.03 ± 0.71	
CCGGAGCAAUAUUACGGAAU	-2.95 ± 0.26	-2.96 ± 0.25
GGAUAGCAAUAUUACGCUAA	-2.07 ± 0.16	-1.03 ± 0.22
AGUCAGCAAUAUUACGGGGG	-3.61 ± 0.21	-2.6 ± 0.22
AAGAAGCAAUAUUACGAGUC	-2.53 ± 0.23	-1.51 ± 0.25
GUACAGCAAUAUUACGUGAU	-2.88 ± 0.07	-0.556 ± 0.07
UUUGAGCAAUAUUACGUGCC	-1.27 ± 1	
CGACAGCAAUAUUACGUCCA	-0.437 ± 0.066	-0.321 ± 0.081
AGGCAGCAAUAUUACGCCUC		-3.73 ± 1
AUACAGCAAUAUUACGAACG	-0.79 ± 0.12	-1.44 ± 0.17
CAGGAGCAAUAUUACGGUUU		-4.6 ± 0.72
CUUUAGCAAUAUUACGCUAC		-2.07 ± 0.65
CGUAAGCAAUAUUACGCAUC	-3.66 ± 0.6	
ACAGAGCAAUAUUACGUCGC	-2.98 ± 0.31	-3.02 ± 0.31
UUCCAGCAAUAUUACGGAAC	-3.11 ± 0.53	
UGAGAGCAAUAUUACGACCU		-0.595 ± 1
UUCUAGCAAUAUUACGCCGC	-1.87 ± 0.58	-1.79 ± 1.2

Sequence	self-splicing fitness (ln) (30 °C)	self-splicing fitness (ln) (37 °C)
UCUAAGCAAUAUUACGAGCC		-2.58 ± 0.54
AACGAGCAAUAUUACGCUCC	-2.47 ± 0.67	-2.19 ± 0.64
UGACAGCAAUAUUACGGAUU	-2.54 ± 0.094	-2.29 ± 0.13
UAUAAGCAAUAUUACGUCCA	-1.23 ± 0.12	0.113 ± 0.18
UUCAAGCAAUAUUACGGAAG	-3.97 ± 0.59	-2.75 ± 0.62
CGCUAGCAAUAUUACGACGC	-5.26 ± 0.71	
GGGUAGCAAUAUUACGACUC	-3.32 ± 0.78	0.0466 ± 0.63
GUGCAGCAAUAUUACGCUCC	-4.1 ± 1	-1.74 ± 0.57
CGUAAGCAAUAUUACGAUAC	-3.84 ± 0.6	
GGGUAGCAAUAUUACGCCAG	-3.27 ± 1.1	
UGUGAGCAAUAUUACGCUCU		-3.24 ± 0.52
UCUGAGCAAUAUUACGAAUU	-2.94 ± 0.53	-3.27 ± 0.73
CGGGAGCAAUAUUACGGCUU	-2.04 ± 0.57	-2.56 ± 0.76
UCCAAGCAAUAUUACGCGGC	-2.74 ± 0.23	-2.94 ± 0.23
ACUGAGCAAUAUUACGAAAA	-2.91 ± 1.1	
ACUUAGCAAUAUUACGCUGA	-2.63 ± 0.49	-2.05 ± 0.69
AGGGAGCAAUAUUACGAUAC	-2.29 ± 0.9	
GGGGAGCAAUAUUACGCAGU	-4.26 ± 1	
UACUAGCAAUAUUACGGAGG	-2.77 ± 0.17	-1.28 ± 0.13
CUAAAGCAAUAUUACGCAAA		-2.97 ± 0.52
UUGGAGCAAUAUUACGUAAC	-2.87 ± 0.75	-0.777 ± 0.56

Rewritten in markdown: part of the list above

| Sequence | self-splicing fitness (ln) (30 °C) | self-splicing fitness (ln) (37 °C) |
| --- | --- | --- |
| UCUAAGCAAUAUUACGAGCC |  | -2.58 ± 0.54 |
| AACGAGCAAUAUUACGCUCC | -2.47 ± 0.67 | -2.19 ± 0.64 |
| UGACAGCAAUAUUACGGAUU | -2.54 ± 0.094 | -2.29 ± 0.13 |

From the supplement of paper PMC7877785
